In article PMC12053477:
These are yes or no findings as the source states them, for the method shown. Some entries that bind do so weakly or less than the wild type.

Protein sequences, listed by entry. Tags and fused reporters are not part of them.
UniProt Q9NRG4: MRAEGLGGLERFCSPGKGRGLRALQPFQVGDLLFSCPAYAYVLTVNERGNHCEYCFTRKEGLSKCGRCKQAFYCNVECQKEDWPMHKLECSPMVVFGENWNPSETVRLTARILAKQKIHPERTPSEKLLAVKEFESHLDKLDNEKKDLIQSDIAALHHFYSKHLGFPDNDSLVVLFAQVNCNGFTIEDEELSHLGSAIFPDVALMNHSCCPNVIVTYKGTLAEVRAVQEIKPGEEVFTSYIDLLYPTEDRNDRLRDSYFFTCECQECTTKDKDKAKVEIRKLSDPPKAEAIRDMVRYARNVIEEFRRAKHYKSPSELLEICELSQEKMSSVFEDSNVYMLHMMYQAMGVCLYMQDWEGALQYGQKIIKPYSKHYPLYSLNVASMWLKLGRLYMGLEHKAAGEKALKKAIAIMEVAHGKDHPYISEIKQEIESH

Biological target: T1, EOMES (human (endogenous in endoderm cells derived from H9 hPSCs)) (UniProt O95936)
T1 sequence: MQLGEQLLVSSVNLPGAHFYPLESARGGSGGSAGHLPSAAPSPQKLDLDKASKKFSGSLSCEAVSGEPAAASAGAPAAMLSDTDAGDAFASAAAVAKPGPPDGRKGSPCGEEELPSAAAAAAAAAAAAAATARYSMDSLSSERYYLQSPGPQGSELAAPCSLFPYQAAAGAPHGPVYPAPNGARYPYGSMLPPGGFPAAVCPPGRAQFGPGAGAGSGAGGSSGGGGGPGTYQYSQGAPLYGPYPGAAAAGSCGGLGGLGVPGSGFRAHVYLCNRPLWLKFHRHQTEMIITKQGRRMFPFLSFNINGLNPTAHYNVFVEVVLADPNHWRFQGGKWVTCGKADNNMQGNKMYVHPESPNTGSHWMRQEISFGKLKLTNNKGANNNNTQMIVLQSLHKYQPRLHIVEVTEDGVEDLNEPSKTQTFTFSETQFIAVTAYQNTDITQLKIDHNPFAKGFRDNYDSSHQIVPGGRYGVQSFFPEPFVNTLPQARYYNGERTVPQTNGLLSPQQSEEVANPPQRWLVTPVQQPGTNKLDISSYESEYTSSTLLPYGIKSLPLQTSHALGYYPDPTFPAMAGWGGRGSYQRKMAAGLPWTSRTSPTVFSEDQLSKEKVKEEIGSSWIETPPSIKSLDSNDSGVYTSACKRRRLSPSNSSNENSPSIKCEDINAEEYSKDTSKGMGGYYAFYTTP
Assay: sequential ChIP; sequential ChIP with antibodies to the two endogenous proteins in Day 2 endoderm cells, formaldehyde cross-linked chromatin, read out by Q-PCR on CDKI loci; IgG as first ChIP for control

In the case of “SMYD2 (from UniProt Q9NRG4 1-433) (enzyme)”, the binding is reported as “binds”.
